Laboratory results from PMC5423270.
Results are given in words; binding and its absence hold for the method and conditions named. Binding seen in cells or lysates may run through a third protein. Some entries that bind do so weakly or less than the wild type.

Amino acid sequences for entries named in this document (tags omitted).
UniProt Q61188: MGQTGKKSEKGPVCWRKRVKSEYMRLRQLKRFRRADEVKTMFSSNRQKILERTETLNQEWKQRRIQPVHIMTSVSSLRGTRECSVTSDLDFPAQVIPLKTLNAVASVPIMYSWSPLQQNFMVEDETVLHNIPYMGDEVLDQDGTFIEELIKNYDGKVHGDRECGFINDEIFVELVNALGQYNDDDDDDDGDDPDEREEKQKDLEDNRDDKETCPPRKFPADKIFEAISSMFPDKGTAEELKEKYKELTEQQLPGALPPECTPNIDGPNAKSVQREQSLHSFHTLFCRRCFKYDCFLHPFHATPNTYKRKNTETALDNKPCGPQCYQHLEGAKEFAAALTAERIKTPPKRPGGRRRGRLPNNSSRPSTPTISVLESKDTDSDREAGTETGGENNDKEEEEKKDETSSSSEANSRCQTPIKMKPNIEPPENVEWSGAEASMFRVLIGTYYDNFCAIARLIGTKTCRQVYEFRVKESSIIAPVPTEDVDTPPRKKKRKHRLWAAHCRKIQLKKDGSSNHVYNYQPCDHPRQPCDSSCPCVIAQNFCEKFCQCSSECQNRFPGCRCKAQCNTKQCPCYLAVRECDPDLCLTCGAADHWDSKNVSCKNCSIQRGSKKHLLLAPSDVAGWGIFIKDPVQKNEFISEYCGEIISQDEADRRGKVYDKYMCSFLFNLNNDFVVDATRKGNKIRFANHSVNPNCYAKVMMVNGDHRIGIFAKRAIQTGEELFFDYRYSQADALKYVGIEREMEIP

Target: Enhancer of zeste homologue 2 (EZH2), endogenous (mouse (endogenous in C2C12)) (UniProt Q61188)
Assay: co-IP; anti-EZH2 IP (IgG as control) from total extracts of C2C12 cells in GM, DM or DM with SB202190, MG132 for 2 h before collecting; 50 mM Tris-HCl pH 7.5, 150 mM NaCl, 1% NP-40; blot for EZH2 and PJA1

B1: Praja1 (PJA1) E3 ubiquitin ligase, endogenous (protein, UniProt O55176 1-578)
chain: MSHQERIASQRRTTAEVPMHRSTANQSKRSRSPFASTRRRWDDSESSGASLAVESEDYSRYPPREYRASGSRRGLAYGHIDTVVARDSEEEGAGPVDRLPVRGKAGKFKDDPEKGARSSRFTSVNHDAKEECGKVESPPAARCSARRAELSKQNGSSASQISSAEGRAAAKGNNSLERERQNLPARPSRAPVSICGGGENTPKSAEEPVVRPKVRNVATPNCMKPKVFFDTDDDDDVPHSTSRWRDAADAEEAHAEGLARRGRGEAASSSEPRYAEDQDARSEQAKADKVPRRRRTMADPDFWAYTDDYYRYYEEDSDSDKEWMAALRRKYRSREQPQSSSGESWELLPGKEELERQQAGAGSLASAGSNGSGYPEEVQDPSLQEEEQASLEEGEIPWLRYNENESSSEGDNESTHELIQPGMFMLDGNNNLEDDSSVSEDLEVDWSLFDGFADGLGVAEAISYVDPQFLTYMALEERLAQAMETALAHLESLAVDVEVANPPASKESIDALPEILVTEDHGAVGQEMCCPICCSEYVKGEVATELPCHHYFHKPCVSIWLQKSGTCPVCRCMFPPPL
With B1 the binding was “binds”.
